Assay results as given in US11174291B2 (Arizona Board of Regents on behalf of Arizona State …, priority 2015, dated 2021).

assay: general procedure: solution-phase peptide synthesis; DCC/DMAP (ester couplings); HBTU/TEA (fragment couplings); PyBroP/TEA (cyclisati); conditions: coupling step

Substance | step yield
Fmoc-Thr(tBu)-D-Hcha-D-Val-Lac-OBn | 79%
Fmoc-Thr(tBu)-D-Hcha-D-Val-Lac-[Val-D-Hcha-D-Val-Lac]2-OBn | 64%
Fmoc-Thr(tBu)-D-Hcha-D-Val-Lac-[Val-D-Hica-D-Val-Lac]2-OBn | 74%
Fmoc-Thr(tBu)-D-Hica-D-Val-Lac-OBn | 83%
Fmoc-Thr(tBu)-D-Hica-D-Val-Lac-[Val-D-Hica-D-Val-Lac]2-OBn | 74%
Fmoc-Tyr(tBu)-D-Hcha-D-Val-Lac-OBn | 90%
Fmoc-Tyr(tBu)-D-Hcha-D-Val-Lac-[Val-D-Hcha-D-Val-Lac]2-OBn | 74%
Fmoc-Tyr(tBu)-D-Hcha-D-Val-Lac-[Val-D-Hica-D-Val-Lac]2-OBn | 71%
Fmoc-Tyr(tBu)-D-Hica-D-Val-Lac-OBn | 94%
Fmoc-Tyr(tBu)-D-Hica-D-Val-Lac-[Val-D-Hica-D-Val-Lac]2-OBn | 81%
Fmoc-Val-D-Hcha-D-Val-Lac-OBn | 82%
Fmoc-Val-D-Hica-D-Val-Lac-OBn | 77%
Fmoc-[Val-D-Hcha-D-Val-Lac]2-OBn | 76%
Fmoc-[Val-D-Hcha-D-Val-Lac]3-OBn | 70%
Fmoc-[Val-D-Hica-D-Val-Lac]2-OBn | 83%
Fmoc-[Val-D-Hica-D-Val-Lac]3-OBn | 62%

same assay, conditions: cyclisation step

Substance | cyclisation yield
Cyclo-{Thr(tBu)-D-Hcha-D-Val-Lac-[Val-D-Hica-D-Val-Lac]2} | 48%
Cyclo-{Tyr(tBu)-D-Hcha-D-Val-Lac-[Val-D-Hica-D-Val-Lac]2} | 22%

same assay, conditions: cyclisation step, on linear precursor 6a

Substance | cyclisation yield
Cyclo-[Val-D-Hica-D-Val-Lac]3 | 28%

same assay, conditions: cyclisation step, on linear precursor 6b

Substance | cyclisation yield
Cyclo-{Thr(tBu)-D-Hica-D-Val-Lac-[Val-D-Hica-D-Val-Lac]2} | 33%

same assay, conditions: cyclisation step, on linear precursor 6c

Substance | cyclisation yield
Cyclo-{Tyr(tBu)-D-Hica-D-Val-Lac-[Val-D-Hica-D-Val-Lac]2} | 11%

same assay, conditions: cyclisation step, on linear precursor 13a

Substance | cyclisation yield
Cyclo-[Val-D-Hcha-D-Val-Lac]3 | 23%

same assay, conditions: cyclisation step, on linear precursor 13b

Substance | cyclisation yield
Cyclo-{Thr(tBu)-D-Hcha-D-Val-Lac-[Val-D-Hcha-D-Val-Lac]2} | 29%

same assay, conditions: cyclisation step, on linear precursor 13c

Substance | cyclisation yield
Cyclo-{Tyr(tBu)-D-Hcha-D-Val-Lac-[Val-D-Hcha-D-Val-Lac]2} | 34%

same assay, conditions: late stage modification step

Substance | step yield
Cyclo-{Thr-D-Hcha-D-Val-Lac-[Val-D-Hcha-D-Val-Lac]2} | 91%
Cyclo-{Thr-D-Hcha-D-Val-Lac-[Val-D-Hica-D-Val-Lac]2} | 92%
Cyclo-{Thr-D-Hica-D-Val-Lac-[Val-D-Hica-D-Val-Lac]2} | 94%
Cyclo-{Tyr-D-Hcha-D-Val-Lac-[Val-D-Hcha-D-Val-Lac]2} | 96%
Cyclo-{Tyr-D-Hcha-D-Val-Lac-[Val-D-Hica-D-Val-Lac]2} | 87%
Cyclo-{Tyr-D-Hica-D-Val-Lac-[Val-D-Hica-D-Val-Lac]2} | 75%
